Laboratory results from PMC11898288.
Results are given in words; binding and its absence hold for the method and conditions named. In cells and extracts the contact can be indirect. Some results given as binding are weak or reduced against the parent protein; the word gives no strength. Blank lines part the entries; values can stand above or below the substance they belong to.

Protein sequences, listed by entry. Tags and fused reporters are not part of them.
UniProt Q06609: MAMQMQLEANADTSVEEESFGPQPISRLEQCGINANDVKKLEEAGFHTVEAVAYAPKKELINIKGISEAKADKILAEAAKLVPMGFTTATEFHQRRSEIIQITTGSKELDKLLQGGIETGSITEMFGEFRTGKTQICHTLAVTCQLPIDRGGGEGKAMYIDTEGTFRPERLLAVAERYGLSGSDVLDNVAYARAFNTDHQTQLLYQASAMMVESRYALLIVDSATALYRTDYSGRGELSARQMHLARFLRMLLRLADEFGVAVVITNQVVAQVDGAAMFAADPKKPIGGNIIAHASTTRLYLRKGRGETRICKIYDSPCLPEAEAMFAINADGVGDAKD
UniProt Q92830: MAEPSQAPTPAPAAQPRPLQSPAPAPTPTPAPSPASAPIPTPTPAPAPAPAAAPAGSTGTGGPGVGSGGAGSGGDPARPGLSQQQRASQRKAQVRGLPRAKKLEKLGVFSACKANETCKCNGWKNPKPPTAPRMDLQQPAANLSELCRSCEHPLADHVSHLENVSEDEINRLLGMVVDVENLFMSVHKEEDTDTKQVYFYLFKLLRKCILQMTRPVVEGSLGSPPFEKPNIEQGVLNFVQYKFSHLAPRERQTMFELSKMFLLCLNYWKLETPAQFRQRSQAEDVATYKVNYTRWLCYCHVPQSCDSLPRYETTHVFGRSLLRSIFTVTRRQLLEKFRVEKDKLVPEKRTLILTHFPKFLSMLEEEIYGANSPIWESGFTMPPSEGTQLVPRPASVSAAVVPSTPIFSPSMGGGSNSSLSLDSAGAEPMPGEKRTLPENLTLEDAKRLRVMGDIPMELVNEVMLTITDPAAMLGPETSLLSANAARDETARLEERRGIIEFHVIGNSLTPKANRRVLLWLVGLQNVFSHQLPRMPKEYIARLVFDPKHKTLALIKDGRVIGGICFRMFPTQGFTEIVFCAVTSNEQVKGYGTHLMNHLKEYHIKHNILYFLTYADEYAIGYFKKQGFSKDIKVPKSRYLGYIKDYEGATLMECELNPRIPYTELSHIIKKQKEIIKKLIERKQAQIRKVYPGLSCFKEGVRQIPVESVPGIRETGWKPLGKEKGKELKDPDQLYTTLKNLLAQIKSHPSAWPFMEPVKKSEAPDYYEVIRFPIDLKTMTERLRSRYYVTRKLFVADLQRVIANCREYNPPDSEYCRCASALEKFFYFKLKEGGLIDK

Experiments:
[1] = molecular target: RAD51 (endogenous) (human (endogenous in the cell lines of the study)) (UniProt Q06609); test: co-IP; endogenous RAD51 and GCN5 in cell lysate; specific primary antibodies, protein A/G beads, Western blotting
Flag-RAD51 (wild type) [2] = molecular target: Flag-RAD51 (wild type) (UniProt Q06609); test: co-IP; HEK293T transfected with WT, K73R or K40R RAD51 vectors; co-IP and Western blotting
Flag-RAD51 (wild type) [3] = molecular target: Flag-RAD51 (wild type) (UniProt Q06609); test: co-IP; HEK293T co-transfected with Myc-GCN5 and Flag-RAD51 vectors; immunoprecipitated with anti-Flag antibodies, Western blotting

binding [1]: binds
Substance: GCN5 (endogenous) (from UniProt Q92830 1-837)

binding (Flag-RAD51 (wild type) [2]): binds
Substance: GCN5 in HEK293T cells (Figure 6L) (from UniProt Q92830 1-837)

binding (Flag-RAD51 (wild type) [3]): binds
Substance: Myc-GCN5 (from UniProt Q92830 1-837)
